Results are given in words; binding and its absence hold for the method and conditions named. Binding seen in cells or lysates may run through a third protein. Some entries that bind do so weakly or less than the wild type. Blank lines part the entries; values can stand above or below the substance they belong to.
Tests used:
Flag-USP10 = Flag-USP10 (UniProt Q14694); assay: co-IP; Flag- and HA-tagged plasmids co-transfected in 293T cells; anti-Flag M2 agarose about 4 h at 4 °C; anti-HA Western blot
[1] = molecular target: USP10 very C-terminal region (amino acids 700–798), Flag-tagged deletion mutant (UniProt Q14694); assay: as above
[2] = molecular target: USP10 (co-precipitation with p53, data not shown) (UniProt Q14694); assay: co-IP; USP10-HDAC6 co-precipitation with p53; preliminary data, data not shown
[3] = molecular target: Ubiquitin-specific peptidase 10 (USP10), endogenous (human (endogenous in H23)) (UniProt Q14694); assay: co-IP; endogenous proteins, H23 lysate (20 mM Tris-HCl pH 7.5, 150 mM NaCl, 1 mM EDTA, 1 mM EGTA, 1% Triton X-100, 10% glycerol); primary antibody 12 h at 4 °C, protein A or G beads; Western blot

Sequences of proteins named here, by UniProt entry; tags and fusion partners are left off. A change or cut given only in a name is not applied to a line headed by its entry. A line that says so, or that is headed by a name, gives the form on record, which may keep a tag or linker. Residues count along the entry.
UniProt Q14694: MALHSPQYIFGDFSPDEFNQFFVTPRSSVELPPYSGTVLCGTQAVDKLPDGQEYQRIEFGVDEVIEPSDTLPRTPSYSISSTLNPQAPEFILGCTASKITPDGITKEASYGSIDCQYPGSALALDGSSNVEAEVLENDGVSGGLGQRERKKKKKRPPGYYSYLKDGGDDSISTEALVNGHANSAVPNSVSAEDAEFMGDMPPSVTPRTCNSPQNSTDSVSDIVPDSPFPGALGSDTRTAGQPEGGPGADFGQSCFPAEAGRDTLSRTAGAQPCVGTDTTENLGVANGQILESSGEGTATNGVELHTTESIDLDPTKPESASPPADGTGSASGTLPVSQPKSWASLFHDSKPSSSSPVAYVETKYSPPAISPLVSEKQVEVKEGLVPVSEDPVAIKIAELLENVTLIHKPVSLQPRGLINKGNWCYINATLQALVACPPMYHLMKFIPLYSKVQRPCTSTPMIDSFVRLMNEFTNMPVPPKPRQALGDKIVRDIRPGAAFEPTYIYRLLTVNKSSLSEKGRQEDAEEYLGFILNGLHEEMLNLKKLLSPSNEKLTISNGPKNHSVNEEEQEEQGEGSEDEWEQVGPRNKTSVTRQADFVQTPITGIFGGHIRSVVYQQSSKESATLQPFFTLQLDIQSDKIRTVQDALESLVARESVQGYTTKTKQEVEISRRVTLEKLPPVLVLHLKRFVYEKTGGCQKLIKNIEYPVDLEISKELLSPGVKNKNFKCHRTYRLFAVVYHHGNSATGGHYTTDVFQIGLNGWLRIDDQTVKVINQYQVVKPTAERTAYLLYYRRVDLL
USP10 very C-terminal region (amino acids 700–798), Flag-tagged deletion mutant: residues 700-798 of Q14694
UniProt Q9UBN7: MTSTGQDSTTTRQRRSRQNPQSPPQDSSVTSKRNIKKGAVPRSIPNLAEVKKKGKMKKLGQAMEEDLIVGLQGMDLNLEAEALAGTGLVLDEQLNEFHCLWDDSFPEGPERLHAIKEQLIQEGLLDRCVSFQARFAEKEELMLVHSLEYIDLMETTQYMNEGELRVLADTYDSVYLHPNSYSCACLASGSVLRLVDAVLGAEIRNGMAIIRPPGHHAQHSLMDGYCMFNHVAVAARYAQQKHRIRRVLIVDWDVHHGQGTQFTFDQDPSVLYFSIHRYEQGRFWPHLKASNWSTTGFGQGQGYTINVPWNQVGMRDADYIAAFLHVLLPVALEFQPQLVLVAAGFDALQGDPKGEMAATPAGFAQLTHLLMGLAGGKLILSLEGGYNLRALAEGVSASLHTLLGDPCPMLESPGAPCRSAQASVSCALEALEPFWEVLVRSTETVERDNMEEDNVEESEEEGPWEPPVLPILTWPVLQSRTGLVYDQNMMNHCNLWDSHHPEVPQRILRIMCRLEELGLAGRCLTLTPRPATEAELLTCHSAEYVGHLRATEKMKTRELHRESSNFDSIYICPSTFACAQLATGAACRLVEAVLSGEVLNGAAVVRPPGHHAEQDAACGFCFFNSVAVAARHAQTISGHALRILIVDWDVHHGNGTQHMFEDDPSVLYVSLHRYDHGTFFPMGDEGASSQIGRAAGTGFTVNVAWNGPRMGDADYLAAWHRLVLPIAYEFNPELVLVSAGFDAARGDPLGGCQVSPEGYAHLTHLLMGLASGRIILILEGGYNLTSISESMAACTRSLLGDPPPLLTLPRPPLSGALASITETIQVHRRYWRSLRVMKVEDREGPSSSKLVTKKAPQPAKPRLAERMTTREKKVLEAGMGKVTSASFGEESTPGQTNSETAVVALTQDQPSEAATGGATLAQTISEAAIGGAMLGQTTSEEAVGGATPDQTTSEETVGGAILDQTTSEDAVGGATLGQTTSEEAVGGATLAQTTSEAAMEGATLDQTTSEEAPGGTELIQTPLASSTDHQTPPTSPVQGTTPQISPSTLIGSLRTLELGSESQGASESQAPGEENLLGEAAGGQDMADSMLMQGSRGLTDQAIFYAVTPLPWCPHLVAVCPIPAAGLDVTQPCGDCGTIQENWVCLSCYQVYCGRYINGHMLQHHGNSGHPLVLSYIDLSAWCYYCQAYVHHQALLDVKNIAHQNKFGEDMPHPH

binding (Flag-USP10): binds
binding [1]: binds
Substance: HA-HDAC6 (from UniProt Q9UBN7 1-1215) (enzyme)

binding [2]: binds
Substance: HDAC6 (co-precipitation with p53, data not shown) (from UniProt Q9UBN7 1-1215) (enzyme)

binding [3]: binds
Substance: histone deacetylase 6 (HDAC6), endogenous (from UniProt Q9UBN7 1-1215)
